In patent US20110257168A1, “DERIVATIVES OF OXABISPIDINE AS NEURONAL NICOTINIC ACETYLCHOLINE RECEPTOR LIGANDS” (Targacept, Inc., priority 2008, published 2011):
For at least one compound, name, drawing or mass did not settle the structure.

Chains of the proteins cited; added tags and fusions are not shown. Residues count along the entry.
UniProt Q05941, 23-502: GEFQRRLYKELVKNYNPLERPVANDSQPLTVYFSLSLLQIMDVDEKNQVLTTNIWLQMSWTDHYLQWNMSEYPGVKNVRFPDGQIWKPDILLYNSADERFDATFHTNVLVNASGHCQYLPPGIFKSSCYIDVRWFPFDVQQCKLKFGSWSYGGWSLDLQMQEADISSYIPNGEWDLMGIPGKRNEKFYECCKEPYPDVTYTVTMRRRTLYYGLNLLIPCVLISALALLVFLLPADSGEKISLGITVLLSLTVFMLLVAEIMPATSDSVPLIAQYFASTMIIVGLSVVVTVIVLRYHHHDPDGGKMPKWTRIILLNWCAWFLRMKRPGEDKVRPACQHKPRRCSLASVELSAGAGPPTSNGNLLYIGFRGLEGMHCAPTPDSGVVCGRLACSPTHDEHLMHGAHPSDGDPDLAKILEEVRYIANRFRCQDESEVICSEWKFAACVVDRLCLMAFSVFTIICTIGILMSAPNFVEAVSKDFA
UniProt P36544, 23-502: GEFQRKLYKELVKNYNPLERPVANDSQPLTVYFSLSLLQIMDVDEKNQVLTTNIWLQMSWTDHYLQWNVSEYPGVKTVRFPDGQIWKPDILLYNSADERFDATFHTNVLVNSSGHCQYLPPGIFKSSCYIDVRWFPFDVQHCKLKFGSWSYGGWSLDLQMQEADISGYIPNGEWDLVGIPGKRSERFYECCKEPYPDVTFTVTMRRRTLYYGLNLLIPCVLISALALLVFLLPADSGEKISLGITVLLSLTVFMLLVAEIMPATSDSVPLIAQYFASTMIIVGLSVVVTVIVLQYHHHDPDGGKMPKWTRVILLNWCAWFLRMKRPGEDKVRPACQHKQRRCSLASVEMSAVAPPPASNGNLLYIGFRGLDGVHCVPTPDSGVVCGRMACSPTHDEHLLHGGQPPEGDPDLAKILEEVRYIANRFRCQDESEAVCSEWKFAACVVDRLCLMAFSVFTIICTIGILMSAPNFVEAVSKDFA

Key:
[1] = biological target: T1, Rat α7 (Rattus norvegicus, UniProt Q05941); assay: Competition binding to rat α7 receptors in membrane preparations; settings: membranes, [3H]-epibatidine competition; Ki by Cheng-Prusoff
T1 construct: Preparation of membranes from rat tissues; Rat cortices were obtained from Analytical Biological Services; tissue Analytical Biological Services, Incorporated (ABS, Wilmington, Del.); host or cells: rat brain membranes (only cortex is described)
Method: Preparation of membranes from rat tissues. Rat cortices were obtained from Analytical Biological Services, Incorporated (ABS, Wilmington, Del.). Tissues were dissected from female Sprague-Dawley rats, frozen and shipped on dry ice. Tissues were stored at −20° C. until needed for membrane preparation. Cortices from 10 rats were pooled and homogenized by Polytron (Kinematica GmbH, Switzerland) in 10 volumes (weight:volume) of ice-cold preparative buffer (KCl, 11 mM; KH2PO4, 6 mM; NaCl 137 mM; Na2HPO4 8 mM; HEPES (free acid), 20 mM; iodoacetamide, 5 mM; EDTA, 1.5 mM; 0.1 mM PMSF pH 7.4). The resulting homogenate was centrifuged at 40,000 g for 20 minutes at 4° C. and the resulting pellet was resuspended in 20 volumes of ice-cold water. […] Protein concentrations were determined using the Pierce BCA Protein Assay kit (Pierce Biotechnology, Rockford, Ill.), with bovine serum albumin as the standard. […] The pellet was resuspended in PBS and protein concentration determined using the Pierce BCA Protein Assay kit (Pierce Biotechnology, Rockford, Ill.).
(§1) Competition binding to receptors in membrane preparations. […] Filters were washed 3 times and the radioactivity retained was determined by liquid scintillation counting.
Binding data analysis. Binding data were expressed as percent total control binding. […] Ki was calculated using the Cheng-Prusoff equation (Cheng and Prusoff, 1973).

[2] = biological target: T2, Human α7 (Homo sapiens, UniProt P36544); assay: Competition binding to human α7 receptors in membrane preparations; settings: membranes, [3H]-epibatidine competition; Ki by Cheng-Prusoff
T2 construct: host or cells: HEK cells co-expressing RIC3
Method: SH-EP1/human α4β2 (Eaton et al., 2003), SH-EP1/human α4β4 (Gentry et al., 2003), SH-EP1/α6β3β4α5 (Grinevich et al., 2005), TE671/RD and SH-SY5Y cell lines (obtained from Dr. Ron Lukas, Barrow Neurological Institute) were maintained in proliferative growth phase in Dulbecco's modified Eagle's medium (Gibco/BRL) with 10% horse serum (Gibco BRL), 5% fetal bovine serum (HyClone, Logan Utah), 1 mM sodium pyruvate, 4 mM L-glutamine. For maintenance of stable transfectants, the α4β2 and α4β4 cell media was supplemented with 0.25 mg/mL zeocin and 0.13 mg/mL hygromycin B. Selection was maintained for the α6β3β4α5 cells with 0.25 mg/mL of zeocin, 0.13 mg/mL of hygromycin B, 0.4 mg/mL of geneticin, and 0.2 mg/mL of blasticidin. HEK/human α7/RIC3 cells (obtained from J. Lindstrom, U. Pennsylvania) were maintained in proliferative growth phase in Dulbecco's modified Eagle's medium (Gibco/BRL) with 10% fetal bovine serum (HyClone, Logan Utah), 1 mM sodium pyruvate, 4 mM L-glutamine, 0.4 mg/mL geneticin; 0.2 mg/ml hygromycin B.
Preparation of membranes from rat tissues. Rat cortices were obtained from Analytical Biological Services, Incorporated (ABS, Wilmington, Del.). Tissues were dissected from female Sprague-Dawley rats, frozen and shipped on dry ice. Tissues were stored at −20° C. until needed for membrane preparation. […] Protein concentrations were determined using the Pierce BCA Protein Assay kit (Pierce Biotechnology, Rockford, Ill.), with bovine serum albumin as the standard. […] The pellet was resuspended in PBS and protein concentration determined using the Pierce BCA Protein Assay kit (Pierce Biotechnology, Rockford, Ill.).
as §1
Binding data analysis. Binding data were expressed as percent total control binding. […]

Compound | Ki [1] [nM] | Ki [2] [nM]
Brc1cncc(N2CC3CNCC(C2)O3)c1 [3-(5-bromopyridin-3-yl)-9-oxa-3,7-diazabicydo[3.3.1]nonane] | 580 | 220
COc1cc(N2CC3CNCC(C2)O3)cnc1Cl [3-(5-methoxy-6-chloropyridin-3-yl)-9-oxa-3,7-diazabicyclo[3.3.1]nonane] | 400 | 410
CN1CC2CN(c3cnc(Cl)c(Cl)c3)CC(C1)O2 [3-methyl-7-(5,6-dichloropyridin-3-yl)-9-oxa-3,7-diazabicyclo[3.3.1]nonane] |  | 4100
